This passage reports log2 fold change results from the supplement of paper PMC12819154, “High-throughput peptide-centric local stability assay extends protein–ligand identification to membrane proteins, tissues and bacteria” (Nature Structural & Molecular Biology, 2025).

Sequences of proteins named here, by UniProt entry; tags and fusion partners are left off. A change or cut given only in a name is not applied to a line headed by its entry.
UniProt Q96DT6: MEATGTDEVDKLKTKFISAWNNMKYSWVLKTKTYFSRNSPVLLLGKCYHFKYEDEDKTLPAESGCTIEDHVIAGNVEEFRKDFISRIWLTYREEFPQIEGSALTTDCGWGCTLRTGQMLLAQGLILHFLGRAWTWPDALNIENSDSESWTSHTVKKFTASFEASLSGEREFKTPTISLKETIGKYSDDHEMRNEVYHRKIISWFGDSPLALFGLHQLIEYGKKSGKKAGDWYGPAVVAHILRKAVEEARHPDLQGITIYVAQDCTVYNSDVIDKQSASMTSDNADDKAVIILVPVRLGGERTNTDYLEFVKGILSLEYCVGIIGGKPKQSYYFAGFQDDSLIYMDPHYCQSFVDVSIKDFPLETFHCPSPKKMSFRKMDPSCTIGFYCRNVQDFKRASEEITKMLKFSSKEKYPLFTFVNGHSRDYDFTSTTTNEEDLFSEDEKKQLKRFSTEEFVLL
UniProt Q92844: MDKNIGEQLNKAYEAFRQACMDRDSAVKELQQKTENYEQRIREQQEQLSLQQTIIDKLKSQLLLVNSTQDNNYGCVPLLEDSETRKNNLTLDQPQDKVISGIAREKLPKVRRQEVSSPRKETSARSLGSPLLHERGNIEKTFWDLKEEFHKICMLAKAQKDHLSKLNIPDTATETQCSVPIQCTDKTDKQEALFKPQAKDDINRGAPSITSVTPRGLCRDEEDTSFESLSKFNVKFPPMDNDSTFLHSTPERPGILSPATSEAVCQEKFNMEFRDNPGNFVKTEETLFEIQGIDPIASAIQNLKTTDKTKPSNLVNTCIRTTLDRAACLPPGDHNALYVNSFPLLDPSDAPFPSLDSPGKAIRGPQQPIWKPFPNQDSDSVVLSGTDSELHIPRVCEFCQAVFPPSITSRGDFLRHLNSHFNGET
UniProt Q96AJ1: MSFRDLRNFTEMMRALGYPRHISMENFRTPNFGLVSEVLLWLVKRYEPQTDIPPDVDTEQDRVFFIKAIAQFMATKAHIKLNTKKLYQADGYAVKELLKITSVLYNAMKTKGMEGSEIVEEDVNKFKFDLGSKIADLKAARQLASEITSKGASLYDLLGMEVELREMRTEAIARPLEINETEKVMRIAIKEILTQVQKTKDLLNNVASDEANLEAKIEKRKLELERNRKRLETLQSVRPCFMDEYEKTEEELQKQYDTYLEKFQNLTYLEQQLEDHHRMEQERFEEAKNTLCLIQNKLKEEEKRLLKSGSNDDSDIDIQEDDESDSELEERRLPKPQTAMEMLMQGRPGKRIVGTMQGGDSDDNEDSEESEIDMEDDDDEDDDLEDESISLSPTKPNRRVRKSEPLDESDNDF
UniProt Q92833: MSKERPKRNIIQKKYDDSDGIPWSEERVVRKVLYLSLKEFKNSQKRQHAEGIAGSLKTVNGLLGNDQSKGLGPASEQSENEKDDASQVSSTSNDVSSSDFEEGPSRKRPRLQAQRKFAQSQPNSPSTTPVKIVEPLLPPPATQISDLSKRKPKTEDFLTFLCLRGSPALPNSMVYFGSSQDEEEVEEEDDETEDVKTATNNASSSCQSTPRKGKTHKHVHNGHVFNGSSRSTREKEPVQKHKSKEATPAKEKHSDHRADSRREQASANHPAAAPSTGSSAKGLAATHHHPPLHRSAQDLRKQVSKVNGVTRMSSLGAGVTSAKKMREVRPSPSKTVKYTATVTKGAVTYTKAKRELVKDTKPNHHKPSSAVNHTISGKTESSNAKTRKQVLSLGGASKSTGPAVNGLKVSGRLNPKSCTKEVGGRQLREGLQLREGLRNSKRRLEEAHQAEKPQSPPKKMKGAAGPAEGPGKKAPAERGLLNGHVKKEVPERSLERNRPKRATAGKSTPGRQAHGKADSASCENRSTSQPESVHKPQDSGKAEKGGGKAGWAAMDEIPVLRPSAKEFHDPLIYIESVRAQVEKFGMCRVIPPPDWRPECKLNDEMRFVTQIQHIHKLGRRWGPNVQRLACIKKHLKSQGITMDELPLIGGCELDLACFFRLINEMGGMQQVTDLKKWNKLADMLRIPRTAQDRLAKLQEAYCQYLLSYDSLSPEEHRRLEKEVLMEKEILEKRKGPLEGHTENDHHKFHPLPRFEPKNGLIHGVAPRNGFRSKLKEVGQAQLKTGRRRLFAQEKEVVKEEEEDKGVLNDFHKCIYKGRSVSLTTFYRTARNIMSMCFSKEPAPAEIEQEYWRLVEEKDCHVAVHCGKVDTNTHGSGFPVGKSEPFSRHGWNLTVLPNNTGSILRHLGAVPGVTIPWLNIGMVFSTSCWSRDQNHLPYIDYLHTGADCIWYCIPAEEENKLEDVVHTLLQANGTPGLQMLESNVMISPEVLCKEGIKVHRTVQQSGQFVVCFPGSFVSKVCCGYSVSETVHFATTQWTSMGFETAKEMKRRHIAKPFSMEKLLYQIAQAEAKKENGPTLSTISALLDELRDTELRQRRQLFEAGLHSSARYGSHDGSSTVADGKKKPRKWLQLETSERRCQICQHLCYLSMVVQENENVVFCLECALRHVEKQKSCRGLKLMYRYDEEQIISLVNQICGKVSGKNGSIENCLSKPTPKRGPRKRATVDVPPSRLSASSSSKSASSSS
UniProt Q96CN9: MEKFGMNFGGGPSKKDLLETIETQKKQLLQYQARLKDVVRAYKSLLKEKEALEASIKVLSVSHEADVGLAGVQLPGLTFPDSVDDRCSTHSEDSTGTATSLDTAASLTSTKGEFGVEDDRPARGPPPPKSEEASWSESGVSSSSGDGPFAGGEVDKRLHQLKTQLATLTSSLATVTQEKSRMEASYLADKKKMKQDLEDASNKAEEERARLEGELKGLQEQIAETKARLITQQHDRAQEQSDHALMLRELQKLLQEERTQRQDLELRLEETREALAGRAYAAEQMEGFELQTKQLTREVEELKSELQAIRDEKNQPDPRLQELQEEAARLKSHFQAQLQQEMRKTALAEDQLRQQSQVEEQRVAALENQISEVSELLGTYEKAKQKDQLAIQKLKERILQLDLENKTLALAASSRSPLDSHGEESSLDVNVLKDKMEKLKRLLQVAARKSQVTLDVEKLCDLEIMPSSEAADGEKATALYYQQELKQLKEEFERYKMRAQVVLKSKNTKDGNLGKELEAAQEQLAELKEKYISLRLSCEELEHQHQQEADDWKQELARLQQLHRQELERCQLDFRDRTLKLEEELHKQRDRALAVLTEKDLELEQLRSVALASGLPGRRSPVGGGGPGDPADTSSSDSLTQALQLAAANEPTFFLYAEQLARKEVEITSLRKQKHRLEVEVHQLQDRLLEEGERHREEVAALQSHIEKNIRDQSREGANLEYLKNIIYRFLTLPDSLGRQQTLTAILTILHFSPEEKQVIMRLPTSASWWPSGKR
UniProt Q96BD5: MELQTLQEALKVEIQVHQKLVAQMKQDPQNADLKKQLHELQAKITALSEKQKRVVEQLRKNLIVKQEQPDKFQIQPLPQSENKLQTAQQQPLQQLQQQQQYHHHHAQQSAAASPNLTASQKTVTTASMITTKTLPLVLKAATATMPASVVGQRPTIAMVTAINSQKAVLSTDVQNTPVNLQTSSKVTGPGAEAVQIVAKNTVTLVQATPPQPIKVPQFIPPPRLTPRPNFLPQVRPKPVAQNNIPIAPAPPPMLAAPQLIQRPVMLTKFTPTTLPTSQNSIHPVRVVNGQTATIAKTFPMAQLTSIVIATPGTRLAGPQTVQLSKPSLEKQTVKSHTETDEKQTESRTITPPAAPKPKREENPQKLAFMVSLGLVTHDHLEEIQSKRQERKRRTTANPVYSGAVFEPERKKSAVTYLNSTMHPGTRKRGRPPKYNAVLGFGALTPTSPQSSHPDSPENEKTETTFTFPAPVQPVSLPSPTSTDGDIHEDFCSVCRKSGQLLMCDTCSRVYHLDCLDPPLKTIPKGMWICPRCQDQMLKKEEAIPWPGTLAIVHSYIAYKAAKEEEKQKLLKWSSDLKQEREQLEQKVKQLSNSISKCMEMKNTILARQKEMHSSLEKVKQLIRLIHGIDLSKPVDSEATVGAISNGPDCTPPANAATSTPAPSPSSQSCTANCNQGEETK
UniProt Q92667: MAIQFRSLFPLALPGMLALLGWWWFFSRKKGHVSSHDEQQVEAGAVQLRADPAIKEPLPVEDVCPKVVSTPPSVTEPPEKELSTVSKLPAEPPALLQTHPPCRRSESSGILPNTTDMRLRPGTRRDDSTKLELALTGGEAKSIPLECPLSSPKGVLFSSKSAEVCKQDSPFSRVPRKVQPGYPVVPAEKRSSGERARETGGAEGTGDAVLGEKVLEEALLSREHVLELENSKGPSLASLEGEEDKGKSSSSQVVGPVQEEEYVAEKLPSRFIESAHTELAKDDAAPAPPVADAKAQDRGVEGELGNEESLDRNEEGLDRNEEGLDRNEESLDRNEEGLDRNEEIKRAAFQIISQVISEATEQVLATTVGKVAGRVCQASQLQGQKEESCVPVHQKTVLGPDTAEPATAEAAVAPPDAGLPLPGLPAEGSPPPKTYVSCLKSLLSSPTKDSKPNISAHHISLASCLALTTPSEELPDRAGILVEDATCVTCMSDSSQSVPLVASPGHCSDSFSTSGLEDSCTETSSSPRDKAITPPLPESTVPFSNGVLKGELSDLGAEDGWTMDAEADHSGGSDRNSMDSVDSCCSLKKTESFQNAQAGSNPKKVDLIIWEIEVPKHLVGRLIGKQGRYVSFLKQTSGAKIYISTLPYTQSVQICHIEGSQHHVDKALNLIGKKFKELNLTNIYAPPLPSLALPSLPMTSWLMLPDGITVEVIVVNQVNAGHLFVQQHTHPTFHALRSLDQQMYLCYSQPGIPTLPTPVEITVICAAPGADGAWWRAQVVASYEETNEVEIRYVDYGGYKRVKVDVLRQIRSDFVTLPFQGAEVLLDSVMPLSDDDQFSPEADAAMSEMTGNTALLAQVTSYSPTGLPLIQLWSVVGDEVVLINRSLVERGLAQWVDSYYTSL
UniProt Q96CS3: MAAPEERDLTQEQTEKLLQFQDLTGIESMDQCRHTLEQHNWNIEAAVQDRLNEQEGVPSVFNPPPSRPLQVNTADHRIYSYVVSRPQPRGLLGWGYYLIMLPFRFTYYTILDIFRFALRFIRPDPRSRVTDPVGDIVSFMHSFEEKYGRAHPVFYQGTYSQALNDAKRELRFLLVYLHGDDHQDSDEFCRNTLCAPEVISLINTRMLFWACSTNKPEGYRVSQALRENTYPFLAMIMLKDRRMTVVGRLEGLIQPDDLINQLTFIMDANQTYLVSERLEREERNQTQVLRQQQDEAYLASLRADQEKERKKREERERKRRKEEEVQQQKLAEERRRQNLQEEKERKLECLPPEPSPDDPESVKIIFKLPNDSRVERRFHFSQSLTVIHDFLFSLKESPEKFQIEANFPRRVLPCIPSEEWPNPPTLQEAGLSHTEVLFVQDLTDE
UniProt Q92802: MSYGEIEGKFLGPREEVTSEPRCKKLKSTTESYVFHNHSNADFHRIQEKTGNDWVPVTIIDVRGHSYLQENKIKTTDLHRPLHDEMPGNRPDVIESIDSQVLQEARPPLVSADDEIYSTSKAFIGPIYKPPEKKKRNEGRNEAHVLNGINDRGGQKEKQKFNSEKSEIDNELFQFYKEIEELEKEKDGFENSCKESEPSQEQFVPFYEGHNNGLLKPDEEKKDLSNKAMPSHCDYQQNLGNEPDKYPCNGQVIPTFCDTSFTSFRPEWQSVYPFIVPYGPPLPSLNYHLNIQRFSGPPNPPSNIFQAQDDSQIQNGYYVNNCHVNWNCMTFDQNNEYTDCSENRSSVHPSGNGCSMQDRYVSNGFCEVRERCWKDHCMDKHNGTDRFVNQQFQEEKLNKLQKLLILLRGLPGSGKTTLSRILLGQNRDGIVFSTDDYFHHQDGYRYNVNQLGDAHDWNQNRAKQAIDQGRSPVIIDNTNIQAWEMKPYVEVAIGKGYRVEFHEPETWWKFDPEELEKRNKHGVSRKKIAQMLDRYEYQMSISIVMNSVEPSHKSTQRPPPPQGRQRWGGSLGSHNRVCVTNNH
UniProt Q92871: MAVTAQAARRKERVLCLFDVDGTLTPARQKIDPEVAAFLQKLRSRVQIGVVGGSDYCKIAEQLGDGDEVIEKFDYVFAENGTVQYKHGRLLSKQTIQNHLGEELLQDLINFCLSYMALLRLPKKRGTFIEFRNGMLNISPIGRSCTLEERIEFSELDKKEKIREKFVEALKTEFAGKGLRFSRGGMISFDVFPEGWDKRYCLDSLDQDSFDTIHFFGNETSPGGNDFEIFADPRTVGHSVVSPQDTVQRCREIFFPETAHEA
UniProt Q96B02: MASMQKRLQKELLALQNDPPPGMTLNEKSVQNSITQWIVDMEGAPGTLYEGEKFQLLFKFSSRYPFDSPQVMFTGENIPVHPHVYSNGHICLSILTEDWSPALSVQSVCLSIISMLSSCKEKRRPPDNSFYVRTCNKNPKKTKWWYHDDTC

This is one part of the list. Most entries show no effect beyond the scatter of the controls.

Compound in the assay: Cc1nc(Nc2ncc(C(=O)Nc3c(C)cccc3Cl)s2)cc(N2CCN(CCO)CC2)n1 [dasatinib]
Put plainly: log2 fold change of tryptic peptide abundance, ligand vs vehicle (limited proteolysis) (log2 ratio); higher = more trypsin-susceptible (destabilized). The conditions noted are these: ligand concentration: 5 uM; sample: K562 cleared lysate.
Regarding “ATG4C (peptide sequence: YSDDHEMR, peptide start residue: 185) (UniProt Q96DT6)”, the log2 fold change was -0.536.

Consider “TANK (peptide sequence: KNNLTLDQPQDK, peptide start residue: 86) (UniProt Q92844)”, for which the log2 fold change is -0.175.

Take “CLUAP1 (peptide sequence: QLASEITSK, peptide start residue: 142) (UniProt Q96AJ1)”: the log2 fold change is -0.292. The value for “SMARCE1 (peptide sequence: KLEAELLQIEER, peptide start residue: 240) (UniProt Q969G3)” was 0.066; that for “UniProt Q93015 (peptide sequence: LMEGLEVFAR, peptide start residue: 156)” was 0.153; that for “JARID2 (peptide sequence: STSQPESVHKPQDSGK, peptide start residue: 526) (UniProt Q92833)” was -0.322.

With “GCC1 (peptide sequence: SPLDSHGEESSLDVNVLKDK, peptide start residue: 416) (UniProt Q96CN9)”, the log2 fold change is -0.5. Turning to “UniProt Q969J3 (peptide sequence: YQDHLHQCAEAVAFDQNALVKR, peptide start residue: 96)”, the log2 fold change amounted to 0.862.

Consider “EVI5L (peptide sequence: VVELETQDHIHR, peptide start residue: 583) (UniProt Q96CN4)”, for which the log2 fold change is -1.46. To “NT5C3B (peptide sequence: IGFLNDKVEER, peptide start residue: 250) (UniProt Q969T7)” belongs 0.157; to “TAF4B (peptide sequence: SIIVSGATAPR, peptide start residue: 379) (UniProt Q92750)”, 0.337. As for “PHF21A (peptide sequence: VVEQLRK, peptide start residue: 54) (UniProt Q96BD5)”, the log2 fold change is -0.279.

As to “L3MBTL2 (peptide sequence: KISSEPVPGEIIAVR, peptide start residue: 659) (UniProt Q969R5)”, the log2 fold change came out at 0.138.

For the target “AKAP1 (peptide sequence: VLEEALLSR, peptide start residue: 214) (UniProt Q92667)”, the log2 fold change turned out to be 0.211. To “FAF2 (peptide sequence: QQQDEAYLASLRADQEK, peptide start residue: 291) (UniProt Q96CS3)” belongs -0.303; to “UniProt Q96BN2 (peptide sequence: LLTQDNVHSHNDFLLAILTR, peptide start residue: 50)”, -0.745.

For “SNRNP40 (peptide sequence: KGPELPLVPVKR, peptide start residue: 8) (UniProt Q96DI7)”, the log2 fold change was -0.088. Regarding “NACC2 (peptide sequence: NTLANSCGTGIR, peptide start residue: 410) (UniProt Q96BF6)”, the log2 fold change was determined as 0.106. The value for “OPTN (peptide sequence: QFFEIQSK, peptide start residue: 84) (UniProt Q96CV9)” was 0.174. To “UniProt Q92802 (peptide sequence: STTESYVFHNHSNADFHR, peptide start residue: 28)” belongs -0.301; to “C11orf24 (peptide sequence: GTSAAHLNSMEVTTEDTSR, peptide start residue: 68) (UniProt Q96F05)”, -0.218. To “PSMG2 (peptide sequence: TLYDESCSK, peptide start residue: 189) (UniProt Q969U7)” belongs 0.156; to “MSI2 (peptide sequence: ECMVMRDPTTK, peptide start residue: 49) (UniProt Q96DH6)”, 0.0805. With “TAF15 (peptide sequence: ENYSHHTQDDR, peptide start residue: 154) (UniProt Q92804)”, the log2 fold change came to 0.267.

As to “PMM1 (peptide sequence: EKFVEALKTEFAGK, peptide start residue: 164) (UniProt Q92871)”, the log2 fold change amounted to 0.506. The value for “UBE2W (peptide sequence: WWYHDDTC, peptide start residue: 144) (UniProt Q96B02)” was -0.0714; that for “ACD (peptide sequence: LRVPGCNQDLDVQK, peptide start residue: 133) (UniProt Q96AP0)” was -0.438.
